Among the data in patent US20220033483A1 (GUAGNDONG FEIPENG BIOLOGICAL, published 2022) are binding values, retold here.

The target in test [1] is cTnI quality control product recombinant protein (human) (UniProt P19429). In words: AMC biosensor.
Test [2] has the same target. In words: capture ELISA and AMC biosensor.

Numbering of substitutions follows the chain as printed. No constants are given. Whether binding was seen depends on the method and setting. Some entries that bind do so weakly or less than the wild type.

B1: WT 1-4 (antibody, V domains shown)
VH: QVQLQQSGTELAKPGASVKFSCKASDYTFSTYWMYWIKQRPGQGLEWIGYINPSSGHTEYNQRFKDKATLTADKSSSTAYMQLNSLTSEDSAVYYCARKYYGPFAMDYWGQGTSVTVSS
VL: EIFLTQSPAIMSASPGEKVTMTCSASTTVSYAHWYQQKSGTSPKRWLYDSSKIASGIPVRFSGSGSGTSYSLTISSMEAEDAATYYCQNWSTNPYTFGGGTKLEIKR
On to B1, for which, in test [1], the binding result was “binds”.

B2: WT 1-8 (antibody, V domains shown)
VH: B1 VH with S55T, R63K, K99R, Y101W
VL: B1 VL with N93Q
Consider B2, for which, in test [1], the binding entry was “binds”.

B3: WT 1-6 (antibody, V domains shown)
VH: B1 VH with S30T, T31S, I51L, K99R, Y101F
VL: B1 VL with T27S, I53L
With B3, the binding entry in test [1] is given as “binds”.

B4: WT 1-5 (antibody, V domains shown)
VH: B1 VH with T31S, I51L, S55T, R63K, Y101W
VL: B1 VL with T27S, T28S, L47I
On to B4, for which the binding result in test [1] is “binds”.

B5: Mutation 1 (antibody, V domains shown)
VH: B1 VH with D26G, I51L, E59D, Y101F, A105G
VL: B1 VL with A32V, S50T, N89Q, N93Q
notes: other CDR sites as WT
For B5, the binding result in test [2] is listed as “binds”.

B6: WT 1-7 (antibody, V domains shown)
VH: B1 VH with S30T, I51L, S55T, R63K, K99R
VL: B1 VL with T28S, L47I, I53L
In the case of B6, the binding result in test [1] is listed as “binds”.

B7: WT 1-2 (antibody, V domains shown)
VH: B1 VH with S30T, T31S, K99R, Y101W
VL: B1 VL with T27S, I53L, T92S, N93Q
As for B7, the binding entry in test [1] is listed as “binds”.

B8: WT 1-3 (antibody, V domains shown)
VH: B1 VH with S30T, S55T, R63K, Y101F
VL: B1 VL with T28S, L47I, I53L, T92S
Turning to B8, the binding entry in test [1] was “binds”.

B9: WT 1-1 (antibody, V domains shown)
VH: B1 VH with S55T, R63K, K99R
VL: B1 VL with T27S, T28S, L47I
In the case of B9, the binding entry in test [1] is on record as “binds”.
